Data from PMC6530351.
Results are given in words; binding and its absence hold for the method and conditions named. Binding seen in cells or lysates may run through a third protein. Some entries that bind do so weakly or less than the wild type.

Protein sequences, listed by entry. Tags and fused reporters are not part of them.
UniProt Q8C3P7: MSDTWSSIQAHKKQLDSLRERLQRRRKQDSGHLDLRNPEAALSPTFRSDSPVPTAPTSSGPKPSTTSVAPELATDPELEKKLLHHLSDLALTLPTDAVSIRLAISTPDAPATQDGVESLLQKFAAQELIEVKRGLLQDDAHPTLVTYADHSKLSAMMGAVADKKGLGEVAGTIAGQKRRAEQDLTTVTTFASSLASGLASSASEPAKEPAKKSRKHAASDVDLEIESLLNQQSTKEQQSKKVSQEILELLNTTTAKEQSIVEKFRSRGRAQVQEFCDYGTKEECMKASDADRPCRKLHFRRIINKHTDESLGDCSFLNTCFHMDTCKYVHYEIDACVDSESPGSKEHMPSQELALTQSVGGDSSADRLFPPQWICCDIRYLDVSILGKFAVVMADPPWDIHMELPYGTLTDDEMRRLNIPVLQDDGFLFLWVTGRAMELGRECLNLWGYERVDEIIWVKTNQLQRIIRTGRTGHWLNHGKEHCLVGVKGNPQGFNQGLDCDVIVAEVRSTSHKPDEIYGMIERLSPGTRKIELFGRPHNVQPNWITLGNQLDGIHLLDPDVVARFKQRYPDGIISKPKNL

Target: METTL3 (mouse (endogenous in mRTECs)) (UniProt Q8C3P7)
Experiment: co-IP; Pierce co-immunoprecipitation kit; IP with anti-METTL3 antibody from mRTECs, cells crosslinked before the immunoprecipitation; immune complexes treated with RNase for 5 min at 37°C; IgG antibody as control; Western blot

B1: DGCR8 (protein, UniProt Q9EQM6 1-773)
chain: METYESPSPLPREPAGEAMMENRACPFQVLPHEQSPPPPLQTSSDAEVMDVGSGGDGQSEPPADDPFNFYGASLLSKGSFSKGRLLIDPNCSGHSPRTARHAPAVRKFSPDLKLLKDVKISVSFTESCRSKDRKVLYTGVERSTRPECGQLLSPVSGDVHACPFGGSVGNGVGLGGESADKKDEENELDQEKRVEYAVLDELEDFTDNLELDEEGTGGFTAKAIVQRDRVDEEALNFSYEDDFDNDVDALLEEGLCAPKKRRMEEKYGGDSDHPSDGETSVQPMMTKIKTVLKSRGRPPTEPLPDGWIMTFHNSGVPVYLHRESRVVTWSRPYFLGTGSIRKHDPPLSSIPCLHYKKMKDNEEREQNCDLAPSGEVSPVKPLGRSAELDFPLEEPDSMGGDSGSMDEKDPLGAEAAAGALGQVKAKVEVCKDESVDLEEFRNYLEKRFDFEQVTVKKFRTWAERRQFNREMKRKQAESERPILPANQKLITLSVQDAPTKKEFVINPNGKSEVCILHEYMQRVLKVRPVYNFFECENPSEPFGASVTIDGVTYGSGTASSKKLAKNKAARATLEILIPDFVKQTSEEKPKDSEELEYFNHISIEDSRVYELTSKAGLLSPYQILHECLKRNHGMGDTSIKFEVVPGKNQKSEYVMACGKHTVRGWCKNKRVGKQLASQKILQLLHPHVKNWGSLLRMYGRESSKMVKQETSDKSVIELQQYAKKNRPNLHILSKLQEEMKRLAAEREETRKKPKMSIVASAQPGGEPLCTVDV
binding: binds
